From doi:10.1101/2025.03.26.645482
No constants are given. Whether binding was seen depends on the method and setting. Some entries that bind do so weakly or less than the wild type.

Sequences of proteins named here, by UniProt entry; tags and fusion partners are left off. Residues count along the entry.
UniProt O43189: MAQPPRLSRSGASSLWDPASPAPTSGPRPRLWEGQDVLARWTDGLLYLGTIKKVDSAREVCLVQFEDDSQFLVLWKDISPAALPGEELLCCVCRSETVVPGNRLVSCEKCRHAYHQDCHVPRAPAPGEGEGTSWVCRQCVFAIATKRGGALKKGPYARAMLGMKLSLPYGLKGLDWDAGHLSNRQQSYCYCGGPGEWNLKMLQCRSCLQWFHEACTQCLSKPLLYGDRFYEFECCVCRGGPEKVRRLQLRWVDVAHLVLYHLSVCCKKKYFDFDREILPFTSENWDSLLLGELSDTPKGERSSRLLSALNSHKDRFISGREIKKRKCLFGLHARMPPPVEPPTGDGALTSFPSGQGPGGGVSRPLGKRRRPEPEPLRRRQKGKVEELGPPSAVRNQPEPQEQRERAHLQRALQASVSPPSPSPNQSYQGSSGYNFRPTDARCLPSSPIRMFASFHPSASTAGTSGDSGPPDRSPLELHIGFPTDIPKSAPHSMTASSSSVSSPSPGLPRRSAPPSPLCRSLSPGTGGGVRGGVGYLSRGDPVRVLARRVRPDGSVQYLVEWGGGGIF
UniProt Q9Y483: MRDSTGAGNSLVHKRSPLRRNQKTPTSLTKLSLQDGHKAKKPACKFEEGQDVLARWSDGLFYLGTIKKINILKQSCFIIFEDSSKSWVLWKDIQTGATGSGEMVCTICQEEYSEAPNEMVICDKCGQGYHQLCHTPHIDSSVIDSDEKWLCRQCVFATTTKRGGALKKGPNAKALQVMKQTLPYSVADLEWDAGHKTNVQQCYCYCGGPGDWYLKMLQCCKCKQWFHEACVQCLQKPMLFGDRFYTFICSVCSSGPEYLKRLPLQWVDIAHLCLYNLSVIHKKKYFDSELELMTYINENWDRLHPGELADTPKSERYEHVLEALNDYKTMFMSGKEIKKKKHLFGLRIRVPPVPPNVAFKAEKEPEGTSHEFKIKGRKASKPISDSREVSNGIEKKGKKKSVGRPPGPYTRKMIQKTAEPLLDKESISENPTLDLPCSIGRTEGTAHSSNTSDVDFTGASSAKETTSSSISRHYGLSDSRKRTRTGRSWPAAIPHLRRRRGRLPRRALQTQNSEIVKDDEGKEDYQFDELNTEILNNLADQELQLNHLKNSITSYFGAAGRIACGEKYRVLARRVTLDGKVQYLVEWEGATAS
UniProt O75530: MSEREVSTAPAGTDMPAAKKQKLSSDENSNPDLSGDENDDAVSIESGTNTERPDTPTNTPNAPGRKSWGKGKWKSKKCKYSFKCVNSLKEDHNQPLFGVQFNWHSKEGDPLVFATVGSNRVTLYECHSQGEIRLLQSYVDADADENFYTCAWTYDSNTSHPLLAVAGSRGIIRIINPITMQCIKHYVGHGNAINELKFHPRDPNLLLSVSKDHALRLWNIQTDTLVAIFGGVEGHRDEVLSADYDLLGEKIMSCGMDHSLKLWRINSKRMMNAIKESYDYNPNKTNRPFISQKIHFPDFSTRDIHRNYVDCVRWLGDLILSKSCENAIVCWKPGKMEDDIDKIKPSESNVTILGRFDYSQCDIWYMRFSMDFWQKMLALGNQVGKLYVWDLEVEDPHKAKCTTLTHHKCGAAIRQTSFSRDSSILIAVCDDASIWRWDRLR
UniProt Q15022, residues 146-363: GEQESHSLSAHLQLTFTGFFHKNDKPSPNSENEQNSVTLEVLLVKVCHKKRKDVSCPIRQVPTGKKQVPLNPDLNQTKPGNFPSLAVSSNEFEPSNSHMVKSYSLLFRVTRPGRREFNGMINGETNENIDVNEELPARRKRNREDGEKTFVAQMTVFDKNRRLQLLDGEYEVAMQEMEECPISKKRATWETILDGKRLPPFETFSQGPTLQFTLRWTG

Assays:
Test in all cases: co-purification
mEGFP-PHF1 (human) = mEGFP-PHF1 (human) (UniProt O43189)
mEGFP-MTF2 (human) = mEGFP-MTF2 (human) (UniProt Q9Y483)
[1] = molecular target: His6-Flag-Eed-3C-StrepII (human) (UniProt O75530)

| Substance | binding (mEGFP-PHF1 (human)) | binding (mEGFP-MTF2 (human)) | binding [1] |
| --- | --- | --- | --- |
| SUZ12(C2) domain (residues 146-363) (from UniProt Q15022 146-363) (domain or fragment) | binds | binds |  |
| mEGFP-PHF1-StrepII (from UniProt O43189 1-567) |  |  | binds |
